The results in this text go back to the supplement of paper PMC4635364.

Each structure is given as a SMILES string. Where a name gives a salt, the structure may show the parent alone. The list shows a part of the results. Single values are uncertain here, since repeats match poorly.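 Human fetal ventral-midbrain neural progenitor line ReNCell VM, differentiated without mitogens. Images stained for doublecortin (early neurons) or tyrosine hydroxylase (dopaminergic neurons) were scored by blinded raters against untreated wells (0 = no change). Repeats and both raters were averaged, and compounds averaging 2 or higher were picked as hits for retesting.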

In one assay the test system is ReNCell VM. Kind of assay: dopaminergic neuron differentiation score (TH+ cell fraction vs untreated, manual image score) (score (0 to 3)); higher = more TH+ dopaminergic neuron differentiation. Particulars: library: Natural; 2 uM; 4 weeks; BDNF 10 ng/ml + GDNF 10 ng/ml.
For the compound `O=C(O)c1cc(=O)c2cccc(O)c2[nH]1` [xanthurenic acid], the “dopaminergic neuron differentiation score” value was inactive: 0.

As for `CC(Cc1ccc(O)c(O)c1)C(C)Cc1ccc(O)c(O)c1` (centres undefined) [nordihydroguaiaretic acid], the “dopaminergic neuron differentiation score” value was inactive: 0.

For the compound `C=C1C[C@]23CC4[C@@H]5[C@@]6(C)C[C@H](O)C[C@]57C(C2[C@@H](O)[C@H]1[C@@H](O)[C@H]37)N4C6` [hetisine], the “dopaminergic neuron differentiation score” value was inactive: 0.

Still in this assay, the particulars now being: library: Prestwick; 2 uM; 4 weeks; BDNF 10 ng/ml + GDNF 10 ng/ml.
On to `CN1CCN(c2c(F)cc3c(=O)c(C(=O)O)cn(CCF)c3c2F)CC1` [Fleroxacin], for which the “dopaminergic neuron differentiation score” value is inactive: 0.

In the case of `Clc1ccc(C(Cn2ccnc2)OCc2c(Cl)cccc2Cl)c(Cl)c1` (centres undefined) [Isoconazole], the “dopaminergic neuron differentiation score” value is inactive: 0.

As for `CC(N)CCCC(C)(C)O` (centres undefined) [Heptaminol hydrochloride], the “dopaminergic neuron differentiation score” value was inactive: 0.

For the compound `S=c1[nH]cnc2nc[nH]c12` [Mercaptopurine], the “dopaminergic neuron differentiation score” value is inactive: 0.

As for `CC(C)NC(=N)NC(=N)Nc1ccc(Cl)cc1` [Proguanil hydrochloride], the “dopaminergic neuron differentiation score” value was inactive: 0.

As for `CN(C(=O)CN(CCO)CC(=O)N(C)C(C)(C)Cc1ccccc1)C(C)(C)Cc1ccccc1` [Oxethazaine], the “dopaminergic neuron differentiation score” value was inactive: 0.

Take `NC(=O)c1cc[n+](CC2=C(C(=O)[O-])N3C(=O)[C@@H](NC(=O)[C@@H](c4ccccc4)S(=O)(=O)O)[C@H]3SC2)cc1` [Cefsulodin sodium salt]: the “dopaminergic neuron differentiation score” value is inactive: 0.

Take `Cc1nnc(NS(=O)(=O)c2ccc(N)cc2)s1` [Sulfamethizole]: the “dopaminergic neuron differentiation score” value was inactive: 0.

Take `CC(=O)O[C@H]1C[C@@H]2CC[C@@H]3[C@H](CC[C@@]4(C)[C@H]3C[C@H]([N+]3(C)CCCCC3)[C@@H]4OC(C)=O)[C@@]2(C)C[C@@H]1N1CCCCC1` [Vecuronium bromide]: the “dopaminergic neuron differentiation score” value is inactive: 0.

With `C[C@@H]1CCC[C@H](C)N1NC(=O)c1ccc(Cl)c(S(N)(=O)=O)c1` [Clopamide], the “dopaminergic neuron differentiation score” value is inactive: 0.

As for `CC(=O)/N=c1/sc(S(N)(=O)=O)nn1C` [Methazolamide], the “dopaminergic neuron differentiation score” value was inactive: 0.

For the compound `CCOC(=O)O[C@]1(C(=O)COC(=O)CC)CC[C@H]2[C@@H]3CCC4=CC(=O)C=C[C@]4(C)[C@H]3[C@@H](O)C[C@@]21C` [Prednicarbate], the “dopaminergic neuron differentiation score” value is inactive: 0.

With `CC[N+](CC)(CC(=O)Nc1c(C)cccc1C)Cc1ccccc1` [Denatonium benzoate], the “dopaminergic neuron differentiation score” value was inactive: 0.

Still in this assay, the particulars now being: library: Spectrum; 2 uM; 4 weeks; BDNF 10 ng/ml + GDNF 10 ng/ml.
Consider `Nc1c(Br)cc(Br)cc1CN[C@H]1CC[C@H](O)CC1`, for which the “dopaminergic neuron differentiation score” value was inactive: 0.

As for `Cc1cc(O)c2c(c1)C(=O)c1cc(O)cc(O)c1C2=O`, the “dopaminergic neuron differentiation score” value was inactive: 0.

In the case of `CCN1CCCC(OC(=O)C(c2ccccc2)c2ccccc2)C1` (centres undefined), the “dopaminergic neuron differentiation score” value is inactive: 0.

For `COC(=O)C[C@H]1C(C)(C)C2(O)OC34CC2C(=O)[C@]1(C)C3CC[C@]1(C)C4=CC(=O)O[C@H]1c1ccoc1` (stereo partly drawn) [8beta-HYDROXYCARAPIN, 3,8-HEMIACETAL], the “dopaminergic neuron differentiation score” value was active: 3.

For `CC1(C)CCC[C@]2(C)[C@H]3CC(=O)O[C@]3(C)CC[C@@H]12`, the “dopaminergic neuron differentiation score” value was inactive: 0.

For the compound `O=C(O)CCCC[C@@H]1CCSS1`, the “dopaminergic neuron differentiation score” value is inactive: 0.

As to `CC(C)Cc1ccc([C@H](C)C(=O)O)cc1`, the “dopaminergic neuron differentiation score” value was inactive: 0.

In the case of `CN1CC(=O)N2[C@H](c3ccc4c(c3)OCO4)c3[nH]c4ccccc4c3C[C@@H]2C1=O`, the “dopaminergic neuron differentiation score” value was inactive: 0.

Regarding `CCc1c(C)[nH]c2c1C(=O)C(CN1CCOCC1)CC2` (centres undefined), the “dopaminergic neuron differentiation score” value was inactive: 0.

As to `COc1cc2c(cc1OC)-c1c(oc3cc(O)cc(O)c3c1=O)CO2`, the “dopaminergic neuron differentiation score” value was inactive: 0.

Take `CC(=O)O[C@H]1C[C@@H](OC(C)=O)C(C)(C)C2CC(=O)[C@]3(C)C(CC[C@@]4(C)[C@H](C(=O)O)OC(=O)C5OC543)[C@]21C` (some centres undefined): the “dopaminergic neuron differentiation score” value is inactive: 0.

On to `COc1cc(OC)c(C(=O)CCCN2CCCC2)c(OC)c1`, for which the “dopaminergic neuron differentiation score” value is inactive: 0.

In the case of `O=C1c2ccccc2C(=O)C1c1ccccc1`, the “dopaminergic neuron differentiation score” value is inactive: 0.

`NC(N)=Nc1nc(CSCC/C(N)=N/S(N)(=O)=O)cs1`: the “dopaminergic neuron differentiation score” value is inactive: 0.

With `CC(C)C(=O)Nc1ccc([N+](=O)[O-])c(C(F)(F)F)c1`, the “dopaminergic neuron differentiation score” value is inactive: 0.

Take `COC(=O)C(O)c1ccccc1` (centres undefined): the “dopaminergic neuron differentiation score” value is inactive: 0.

As to `CCCCCCCCCCOc1cc2c(O)c(C(=O)OCC)cnc2cc1OCC`, the “dopaminergic neuron differentiation score” value is inactive: 0.

Turning to `C=CC1=C(C(=O)O)N2C(=O)[C@@H](NC(=O)/C(=N\O)c3csc(N)n3)[C@H]2SC1`, the “dopaminergic neuron differentiation score” value was inactive: 0.
